Data on three substances can be found in publication PMC11624269.

By UniProt entry, the sequences of proteins in these tests, tags left out. Where a name states a change or a piece, a line headed by the entry shows the natural chain unless it says otherwise.
UniProt P41229: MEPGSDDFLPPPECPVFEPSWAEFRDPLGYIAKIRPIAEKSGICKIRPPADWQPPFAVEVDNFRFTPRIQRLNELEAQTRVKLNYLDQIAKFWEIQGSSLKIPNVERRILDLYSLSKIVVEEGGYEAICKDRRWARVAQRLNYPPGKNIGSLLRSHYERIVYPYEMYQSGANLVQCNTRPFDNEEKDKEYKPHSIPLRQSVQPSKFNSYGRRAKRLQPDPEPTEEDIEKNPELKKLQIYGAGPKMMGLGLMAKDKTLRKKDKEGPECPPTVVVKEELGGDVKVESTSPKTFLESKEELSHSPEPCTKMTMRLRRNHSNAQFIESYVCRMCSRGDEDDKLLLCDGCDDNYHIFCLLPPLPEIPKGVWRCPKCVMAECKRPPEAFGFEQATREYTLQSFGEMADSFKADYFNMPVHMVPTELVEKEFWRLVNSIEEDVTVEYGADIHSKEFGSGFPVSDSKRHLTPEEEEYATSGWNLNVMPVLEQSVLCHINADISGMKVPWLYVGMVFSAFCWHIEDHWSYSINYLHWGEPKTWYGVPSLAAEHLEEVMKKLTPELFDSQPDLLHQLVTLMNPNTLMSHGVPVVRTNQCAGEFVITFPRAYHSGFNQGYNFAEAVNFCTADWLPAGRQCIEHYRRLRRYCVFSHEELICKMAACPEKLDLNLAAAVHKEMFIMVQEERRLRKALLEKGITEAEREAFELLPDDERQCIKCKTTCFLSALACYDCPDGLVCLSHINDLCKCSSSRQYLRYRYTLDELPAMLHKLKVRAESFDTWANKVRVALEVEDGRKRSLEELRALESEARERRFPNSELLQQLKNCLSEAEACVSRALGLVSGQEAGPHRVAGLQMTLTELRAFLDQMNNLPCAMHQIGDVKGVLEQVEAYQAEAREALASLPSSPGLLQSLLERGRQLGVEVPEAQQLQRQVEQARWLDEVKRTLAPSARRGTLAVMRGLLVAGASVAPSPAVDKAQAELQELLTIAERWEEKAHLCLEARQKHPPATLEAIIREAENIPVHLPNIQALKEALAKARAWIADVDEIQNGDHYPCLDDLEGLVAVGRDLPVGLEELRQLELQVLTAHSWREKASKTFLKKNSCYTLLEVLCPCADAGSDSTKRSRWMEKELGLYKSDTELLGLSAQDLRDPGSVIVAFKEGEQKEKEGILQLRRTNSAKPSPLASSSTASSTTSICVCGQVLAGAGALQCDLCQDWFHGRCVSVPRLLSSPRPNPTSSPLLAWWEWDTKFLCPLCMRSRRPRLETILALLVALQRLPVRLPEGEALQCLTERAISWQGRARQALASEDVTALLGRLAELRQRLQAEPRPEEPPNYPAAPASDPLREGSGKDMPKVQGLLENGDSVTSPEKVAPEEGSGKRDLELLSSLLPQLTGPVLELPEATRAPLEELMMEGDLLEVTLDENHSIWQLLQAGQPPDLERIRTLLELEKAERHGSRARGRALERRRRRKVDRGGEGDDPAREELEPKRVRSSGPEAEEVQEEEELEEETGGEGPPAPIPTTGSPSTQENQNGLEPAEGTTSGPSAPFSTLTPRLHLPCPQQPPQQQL
UniProt P25490: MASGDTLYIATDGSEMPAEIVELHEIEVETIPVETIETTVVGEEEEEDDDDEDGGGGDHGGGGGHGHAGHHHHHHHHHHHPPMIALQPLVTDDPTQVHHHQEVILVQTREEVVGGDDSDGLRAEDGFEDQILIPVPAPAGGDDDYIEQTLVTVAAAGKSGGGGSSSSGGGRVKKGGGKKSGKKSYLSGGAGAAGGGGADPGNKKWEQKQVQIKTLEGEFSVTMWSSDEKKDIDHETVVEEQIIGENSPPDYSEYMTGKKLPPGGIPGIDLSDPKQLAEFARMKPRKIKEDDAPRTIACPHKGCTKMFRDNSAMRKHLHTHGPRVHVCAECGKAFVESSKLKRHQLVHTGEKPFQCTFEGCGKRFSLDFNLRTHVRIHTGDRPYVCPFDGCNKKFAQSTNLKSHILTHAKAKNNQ

No constants are given. Whether binding was seen depends on the method and setting. In cells and extracts the contact can be indirect. Some entries that bind do so weakly or less than the wild type.

Assay [1] deals with KDM5C with HA or Flag tag, expressed in HEK293T cells (human) (UniProt P41229). Put plainly: co-IP; HEK293T cells transfected with HA- or Flag-tagged constructs, 48 h; IP lysis buffer, sonicated; anti-HA or anti-Flag magnetic beads overnight at 4 °C; washed in TBS-T; western blot (mutual co-IP). (In general: Immunoblotting shows a protein as a band on a membrane.)
Assay [2] concerns the target KDM5C-H514A mutant with HA or Flag tag, expressed in HEK293T cells (human) (UniProt P41229). The description is as above.
Assay [3] has as its target KDM5C-Flag expressed in 769-P renal cancer cells (human) (UniProt P41229). Put plainly: co-IP; semi-endogenous: KDM5C-Flag transfected into 769-P cells, endogenous YY1 detected by western blot.
Assay [4] has as its target KDM5C, endogenous in HEK293 cells (human (endogenous in HEK 293)) (UniProt P41229). The experiment in a line: co-IP; endogenous proteins; lysate with KDM5C antibody or homologous IgG 6 h at 4 °C, Protein A/G agarose overnight; western blot.

On to “YY1 with HA or Flag tag, expressed in HEK293T cells (from UniProt P25490 1-414)”, for which the binding entry in assay [1] and in assay [2] was “binds” throughout.
With “YY1, endogenous in 769-P renal cancer cells (from UniProt P25490 1-414)”, the binding entry in assay [3] was “binds”.
As to “Yin Yang 1 (YY1), endogenous in HEK293T cells (from UniProt P25490 1-414)”, the binding entry in assay [4] is reported as “binds”.
